Measured values published in paper PMC10499817.
These are yes or no findings as the source states them, for the method shown. Binding seen in cells or lysates may run through a third protein. These calls come from enrichment with a bait or labelling near it, and not all partners need be listed.

By UniProt entry, the sequences of proteins in these tests, tags left out.
UniProt A0A509AQF6: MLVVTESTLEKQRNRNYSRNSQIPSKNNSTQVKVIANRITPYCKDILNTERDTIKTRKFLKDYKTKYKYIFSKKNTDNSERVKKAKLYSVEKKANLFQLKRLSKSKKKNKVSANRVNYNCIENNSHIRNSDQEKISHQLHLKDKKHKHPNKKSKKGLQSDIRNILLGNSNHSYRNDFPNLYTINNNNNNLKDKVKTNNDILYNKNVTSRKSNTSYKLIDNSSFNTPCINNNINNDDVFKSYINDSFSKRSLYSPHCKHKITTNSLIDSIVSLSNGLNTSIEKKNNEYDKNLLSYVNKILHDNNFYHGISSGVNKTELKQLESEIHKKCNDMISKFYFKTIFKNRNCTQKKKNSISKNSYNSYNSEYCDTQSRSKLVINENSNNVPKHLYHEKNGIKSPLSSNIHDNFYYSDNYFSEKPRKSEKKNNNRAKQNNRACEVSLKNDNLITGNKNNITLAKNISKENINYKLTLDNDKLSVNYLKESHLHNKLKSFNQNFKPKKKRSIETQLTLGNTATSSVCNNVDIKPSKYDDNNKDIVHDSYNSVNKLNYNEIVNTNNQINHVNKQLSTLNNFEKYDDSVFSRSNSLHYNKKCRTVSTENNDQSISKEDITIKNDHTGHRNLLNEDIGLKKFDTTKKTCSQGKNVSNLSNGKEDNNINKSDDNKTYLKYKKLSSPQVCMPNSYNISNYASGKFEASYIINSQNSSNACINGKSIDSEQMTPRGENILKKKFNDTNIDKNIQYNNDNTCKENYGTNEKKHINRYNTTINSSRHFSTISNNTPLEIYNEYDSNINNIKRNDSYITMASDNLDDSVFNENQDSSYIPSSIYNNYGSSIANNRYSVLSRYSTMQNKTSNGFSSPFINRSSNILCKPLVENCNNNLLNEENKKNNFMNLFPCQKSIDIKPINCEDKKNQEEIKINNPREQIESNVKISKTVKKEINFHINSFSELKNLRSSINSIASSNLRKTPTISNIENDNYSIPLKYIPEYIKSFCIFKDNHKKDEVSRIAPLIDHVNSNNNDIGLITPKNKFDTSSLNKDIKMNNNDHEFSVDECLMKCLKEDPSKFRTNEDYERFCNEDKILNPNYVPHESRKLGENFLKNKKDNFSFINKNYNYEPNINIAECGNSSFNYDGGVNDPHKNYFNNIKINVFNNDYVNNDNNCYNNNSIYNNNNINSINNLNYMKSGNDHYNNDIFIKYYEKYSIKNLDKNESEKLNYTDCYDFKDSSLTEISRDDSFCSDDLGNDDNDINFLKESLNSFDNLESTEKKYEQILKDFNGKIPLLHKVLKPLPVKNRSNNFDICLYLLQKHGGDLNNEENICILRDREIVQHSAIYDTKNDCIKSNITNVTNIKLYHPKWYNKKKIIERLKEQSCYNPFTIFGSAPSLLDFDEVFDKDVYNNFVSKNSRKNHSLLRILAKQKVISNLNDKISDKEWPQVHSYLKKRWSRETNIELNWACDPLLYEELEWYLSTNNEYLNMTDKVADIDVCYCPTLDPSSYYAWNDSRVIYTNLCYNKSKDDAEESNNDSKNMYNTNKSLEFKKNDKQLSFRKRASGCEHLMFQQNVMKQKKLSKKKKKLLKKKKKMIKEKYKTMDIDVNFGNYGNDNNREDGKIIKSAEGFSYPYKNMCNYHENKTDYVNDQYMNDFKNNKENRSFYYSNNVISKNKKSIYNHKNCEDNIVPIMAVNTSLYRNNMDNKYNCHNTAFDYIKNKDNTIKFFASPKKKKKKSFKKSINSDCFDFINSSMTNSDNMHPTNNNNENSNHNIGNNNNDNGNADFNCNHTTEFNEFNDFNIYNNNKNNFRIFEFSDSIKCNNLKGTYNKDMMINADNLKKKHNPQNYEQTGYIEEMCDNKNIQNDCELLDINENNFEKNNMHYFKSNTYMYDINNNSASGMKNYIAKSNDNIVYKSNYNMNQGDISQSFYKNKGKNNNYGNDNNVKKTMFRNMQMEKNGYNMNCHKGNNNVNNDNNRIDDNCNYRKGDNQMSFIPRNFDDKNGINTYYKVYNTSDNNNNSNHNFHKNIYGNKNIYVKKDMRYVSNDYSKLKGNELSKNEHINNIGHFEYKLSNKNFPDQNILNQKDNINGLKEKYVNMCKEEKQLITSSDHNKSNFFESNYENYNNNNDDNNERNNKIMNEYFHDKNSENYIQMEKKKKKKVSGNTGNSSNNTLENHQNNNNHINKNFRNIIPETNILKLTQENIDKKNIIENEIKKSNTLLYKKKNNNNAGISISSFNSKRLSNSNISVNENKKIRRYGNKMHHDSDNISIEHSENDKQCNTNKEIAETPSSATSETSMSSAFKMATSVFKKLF
UniProt A0A509AJF0: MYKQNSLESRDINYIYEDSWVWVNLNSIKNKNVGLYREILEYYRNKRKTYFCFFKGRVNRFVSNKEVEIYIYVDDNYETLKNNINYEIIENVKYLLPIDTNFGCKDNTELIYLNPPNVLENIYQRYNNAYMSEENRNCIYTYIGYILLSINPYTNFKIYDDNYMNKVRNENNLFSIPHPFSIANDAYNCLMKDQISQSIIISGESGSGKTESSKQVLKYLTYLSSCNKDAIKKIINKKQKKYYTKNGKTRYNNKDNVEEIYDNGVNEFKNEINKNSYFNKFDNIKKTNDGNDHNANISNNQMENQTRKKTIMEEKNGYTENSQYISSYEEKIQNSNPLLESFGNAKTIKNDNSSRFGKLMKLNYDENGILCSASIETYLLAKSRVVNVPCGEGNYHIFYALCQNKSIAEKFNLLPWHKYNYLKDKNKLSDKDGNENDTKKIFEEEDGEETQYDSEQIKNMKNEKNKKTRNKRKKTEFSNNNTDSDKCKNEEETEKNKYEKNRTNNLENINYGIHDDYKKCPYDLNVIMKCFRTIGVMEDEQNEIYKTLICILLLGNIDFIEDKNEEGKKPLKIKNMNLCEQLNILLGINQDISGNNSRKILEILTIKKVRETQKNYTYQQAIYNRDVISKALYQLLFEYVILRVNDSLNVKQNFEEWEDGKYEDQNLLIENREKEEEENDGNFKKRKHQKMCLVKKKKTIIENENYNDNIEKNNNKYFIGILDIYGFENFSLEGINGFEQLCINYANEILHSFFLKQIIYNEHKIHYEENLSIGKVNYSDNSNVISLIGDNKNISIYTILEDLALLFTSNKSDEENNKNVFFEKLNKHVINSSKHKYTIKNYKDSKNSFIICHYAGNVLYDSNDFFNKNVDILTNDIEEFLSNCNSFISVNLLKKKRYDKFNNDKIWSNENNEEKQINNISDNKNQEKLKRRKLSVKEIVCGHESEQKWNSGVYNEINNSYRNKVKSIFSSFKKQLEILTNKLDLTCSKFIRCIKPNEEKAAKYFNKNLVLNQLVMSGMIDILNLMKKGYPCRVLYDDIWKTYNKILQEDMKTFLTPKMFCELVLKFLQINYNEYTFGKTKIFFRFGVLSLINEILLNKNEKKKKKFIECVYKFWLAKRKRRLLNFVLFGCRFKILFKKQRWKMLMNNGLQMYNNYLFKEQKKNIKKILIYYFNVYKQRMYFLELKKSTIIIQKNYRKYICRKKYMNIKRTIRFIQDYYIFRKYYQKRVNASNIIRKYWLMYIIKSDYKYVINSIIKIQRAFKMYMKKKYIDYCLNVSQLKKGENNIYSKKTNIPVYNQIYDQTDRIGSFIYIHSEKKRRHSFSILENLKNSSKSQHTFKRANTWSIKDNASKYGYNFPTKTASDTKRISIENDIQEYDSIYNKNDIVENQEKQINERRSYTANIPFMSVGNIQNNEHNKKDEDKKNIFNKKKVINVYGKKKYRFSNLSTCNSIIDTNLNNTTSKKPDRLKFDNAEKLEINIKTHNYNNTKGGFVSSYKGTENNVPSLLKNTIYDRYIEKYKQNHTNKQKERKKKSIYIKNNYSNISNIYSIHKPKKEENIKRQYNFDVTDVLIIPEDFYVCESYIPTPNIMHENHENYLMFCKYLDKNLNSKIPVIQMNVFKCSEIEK

target: EB1-GFP (Plasmodium berghei EB1, C-terminal GFP tag at the endogenous locus) (P. berghei); experiment: affinity purification with mass spectrometry; EB1-GFP captured on GFP-Trap_A beads (2 h, 4 °C) from lysates of purified gametocytes 1 min post activation, cross-linked with 1% formaldehyde; on-bead trypsin digestion, LC-MS/MS; WT-GFP gametocytes as control; duplicates; PCA of unique peptide values

binding | Substance
binds | INCENP2, CPC subunit (from UniProt A0A509AQF6 1-2305)
binds | STU2 (from UniProt A0A509AS96 1-3198)
binds | myosin K (from UniProt A0A509AJF0 1-1629)
